# Test: SOMAscan serum proteomics in NASH subjects treated with selonsertib/simtuzumab, baseline and week 24
# Design: species or system human
# Settings: serum protein marker level, week 24 vs baseline
# [1] = hepatic ballooning non-improvers
# [2] = CRN fibrosis stage non-improvers
molecule,measurement,setting,value
"PKB beta (protein, UniProt P31751 1-481, looked up) RAC-beta …: MNEVSVIKEGWLHKRGEYIKTWRPRYFLLKSDGSFIGYKERPEAPDQTLPPLNNFSVAECQLMKTERPRPNTFVIRCLQWTTVIERTFHVDSPDEREEWMRAIQMVANSLKQRAPGEDPMDYKCGSPSDSSTTEEMEVAVSKARAKVTMNDFDYLKLLGKGTFGKVILVREKATGRYYAMKILRKEVIIAKDEVAHTVTESRVLQNTRHPFLTALKYAFQTHDRLCFVMEYANGGELFFHLSRERVFTEERARFYGAEIVSALEYLHSRDVVYRDIKLENLMLDKDGHIKITDFGLCKEGISDGATMKTFCGTPEYLAPEVLEDNDYGRAVDWWGLGVVMYEMMCGRLPFYNQDHERLFELILMEEIRFPRTLSPEAKSLLAGLLKKDPKQRLGGGPSDAKEVMEHRFFLSINWQDVVQKKLLPPFKPQVTSEVDTRYFDDEFTAQSITITPPDRYDSLGLLELDQRTHFPQFSYSASIRE",Median percent CHG at W24 in improver,hepatic ballooning improvers,−7.77%
same,Median percent CHG at W24 in Non-improver,[1],−0.495%
"Proteinase-3 (protein, UniProt P24158 28-248, looked up) Myeloblastin: IVGGHEAQPHSRPYMASLQMRGNPGSHFCGGTLIHPSFVLTAAHCLRDIPQRLVNVVLGAHNVRTQEPTQQHFSVAQVFLNNYDAENKLNDVLLIQLSSPANLSASVATVQLPQQDQPVPHGTQCLAMGWGRVGAHDPPAQVLQELNVTVVTFFCRPHNICTFVPRRKAGICFGDSGGPLICDGIIQGIDSFVIWGCATRLFPDFFTRVALYVDWIRSTLR",Median percent CHG at W24 in improver,hepatic ballooning improvers,−26.62%
same,Median percent CHG at W24 in Non-improver,[1],−14.585%
"S100A7 (protein, UniProt P31151 2-101, looked up) Protein S100-A7: SNTQAERSIIGMIDMFHKYTRRDDKIEKPSLLTMMKENFPNFLSACDKKGTNYLADVFEKKDKNEDKKIDFSEFLSLLGDIATDYHKQSHGAAPCSGGSQ",Median percent CHG at W24 in improver,hepatic ballooning improvers,−1.99%
same,Median percent CHG at W24 in Non-improver,[1],1.06%
"ARGI1 (protein, UniProt P05089 1-322, looked up) Arginase-1: MSAKSRTIGIIGAPFSKGQPRGGVEEGPTVLRKAGLLEKLKEQECDVKDYGDLPFADIPNDSPFQIVKNPRSVGKASEQLAGKVAEVKKNGRISLVLGGDHSLAIGSISGHARVHPDLGVIWVDAHTDINTPLTTTSGNLHGQPVSFLLKELKGKIPDVPGFSWVTPCISAKDIVYIGLRDVDPGEHYILKTLGIKYFSMTEVDRLGIGKVMEETLSYLLGRKKRPIHLSFDVDGLDPSFTPATGTPVVGGLTYREGLYITEEIYKTGLLSGLDIMEVNPSLGKTPEEVTRTVNTAVAITLACFGLAREGNHKPIDYLNPPK",Median percent CHG at W24 in improver,hepatic ballooning improvers,−19.27%
same,Median percent CHG at W24 in Non-improver,[1],−6.98%
"annexin I (protein, UniProt P04083 2-346, looked up) Annexin A1: AMVSEFLKQAWFIENEEQEYVQTVKSSKGGPGSAVSPYPTFNPSSDVAALHKAIMVKGVDEATIIDILTKRNNAQRQQIKAAYLQETGKPLDETLKKALTGHLEEVVLALLKTPAQFDADELRAAMKGLGTDEDTLIEILASRTNKEIRDINRVYREELKRDLAKDITSDTSGDFRNALLSLAKGDRSEDFGVNEDLADSDARALYEAGERRKGTDVNVFNTILTTRSYPQLRRVFQKYTKYSKHDMNKVLDLELKGDIEKCLTAIVKCATSKPAFFAEKLHQAMKGVGTRHKALIRIMVSRSEIDMNDIKAFYQKMYGISLCQAILDETKGDYEKILVALCGGN",Median percent CHG at W24 in improver,hepatic ballooning improvers,−12.32%
same,Median percent CHG at W24 in Non-improver,[1],2.89%
"BPI (protein, UniProt P17213 32-487, looked up) Bactericidal …: VNPGVVVRISQKGLDYASQQGTAALQKELKRIKIPDYSDSFKIKHLGKGHYSFYSMDIREFQLPSSQISMVPNVGLKFSISNANIKISGKWKAQKRFLKMSGNFDLSIEGMSISADLKLGSNPTSGKPTITCSSCSSHINSVHVHISKSKVGWLIQLFHKKIESALRNKMNSQVCEKVTNSVSSELQPYFQTLPVMTKIDSVAGINYGLVAPPATTAETLDVQMKGEFYSENHHNPPPFAPPVMEFPAAHDRMVYLGLSDYFFNTAGLVYQEAGVLKMTLRDDMIPKESKFRLTTKFFGTFLPEVAKKFPNMKIQIHVSASTPPHLSVQPTGLTFYPAVDVQAFAVLPNSSLASLFLIGMHTTGSMEVSAESNRLVGELKLDRLLLELKHSNIGPFPVELLQDIMNYIVPILVLPRVNEKLQKGFPLPTPARVQLYNVVLQPHQNFLLFGADVVYK",Median percent CHG at W24 in improver,hepatic ballooning improvers,−39.76%
same,Median percent CHG at W24 in Non-improver,[1],−20.905%
"JAM-B (protein, UniProt P57087 29-298, looked up) Junctional adhesion molecule B: FSAPKDQQVVTAVEYQEAILACKTPKKTVSSRLEWKKLGRSVSFVYYQQTLQGDFKNRAEMIDFNIRIKNVTRSDAGKYRCEVSAPSEQGQNLEEDTVTLEVLVAPAVPSCEVPSSALSGTVVELRCQDKEGNPAPEYTWFKDGIRLLENPRLGSQSTNSSYTMNTKTGTLQFNTVSKLDTGEYSCEARNSVGYRRCPGKRMQVDDLNISGIIAAVVVVALVISVCGLGVCYAQRKGYFSKETSFQKSNSSSKATTMSENDFKHTKSFII",Median percent CHG at W24 in improver,hepatic ballooning improvers,6.48%
same,Median percent CHG at W24 in Non-improver,[1],−0.86%
"SLIK1 (protein, UniProt Q96PX8 18-696, looked up) SLIT and NTRK-like protein 1: NVTGDVCKEKICSCNEIEGDLHVDCEKKGFTSLQRFTAPTSQFYHLFLHGNSLTRLFPNEFANFYNAVSLHMENNGLHEIVPGAFLGLQLVKRLHINNNKIKSFRKQTFLGLDDLEYLQADFNLLRDIDPGAFQDLNKLEVLILNDNLISTLPANVFQYVPITHLDLRGNRLKTLPYEEVLEQIPGIAEILLEDNPWDCTCDLLSLKEWLENIPKNALIGRVVCEAPTRLQGKDLNETTEQDLCPLKNRVDSSLPAPPAQEETFAPGPLPTPFKTNGQEDHATPGSAPNGGTKIPGNWQIKIRPTAAIATGSSRNKPLANSLPCPGGCSCDHIPGSGLKMNCNNRNVSSLADLKPKLSNVQELFLRDNKIHSIRKSHFVDYKNLILLDLGNNNIATVENNTFKNLLDLRWLYMDSNYLDTLSREKFAGLQNLEYLNVEYNAIQLILPGTFNAMPKLRILILNNNLLRSLPVDVFAGVSLSKLSLHNNYFMYLPVAGVLDQLTSIIQIDLHGNPWECSCTIVPFKQWAERLGSEVLMSDLKCETPVNFFRKDFMLLSNDEICPQLYARISPTLTSHSKNSTGLAETGTHSNSYLDTSRVSISVLVPGLLLVFVTSAFTVVGMLVFILRNRKRSKRRDANSSASEINSLQTVCDSSYWHNGPYNADGAHRVYDCGSHSLSD",Median percent CHG at W24 in improver,hepatic ballooning improvers,5.51%
same,Median percent CHG at W24 in Non-improver,[1],−0.975%
"SP-D (protein, UniProt P35247 21-375, looked up) Pulmonary …: AEMKTYSHRTMPSACTLVMCSSVESGLPGRDGRDGREGPRGEKGDPGLPGAAGQAGMPGQAGPVGPKGDNGSVGEPGPKGDTGPSGPPGPPGVPGPAGREGPLGKQGNIGPQGKPGPKGEAGPKGEVGAPGMQGSAGARGLAGPKGERGVPGERGVPGNTGAAGSAGAMGPQGSPGARGPPGLKGDKGIPGDKGAKGESGLPDVASLRQQVEALQGQVQHLQAAFSQYKKVELFPNGQSVGEKIFKTAGFVKPFTEAQLLCTQAGGQLASPRSAAENAALQQLVVAKNEAAFLSMTDSKTEGKFTYPTGESLVYSNWAPGEPNDDGGSEDCVEIFTNGKWNDRACGEKRLVVCEF",Median percent CHG at W24 in improver,hepatic ballooning improvers,−30.86%
same,Median percent CHG at W24 in Non-improver,[1],−7.39%
"GNS (protein, UniProt P15586 37-552, looked up) N-acetylglucosamine-6-sulfatas …: VFGVAAGTRRPNVVLLLTDDQDEVLGGMTPLKKTKALIGEMGMTFSSAYVPSALCCPSRASILTGKYPHNHHVVNNTLEGNCSSKSWQKIQEPNTFPAILRSMCGYQTFFAGKYLNEYGAPDAGGLEHVPLGWSYWYALEKNSKYYNYTLSINGKARKHGENYSVDYLTDVLANVSLDFLDYKSNFEPFFMMIATPAPHSPWTAAPQYQKAFQNVFAPRNKNFNIHGTNKHWLIRQAKTPMTNSSIQFLDNAFRKRWQTLLSVDDLVEKLVKRLEFTGELNNTYIFYTSDNGYHTGQFSLPIDKRQLYEFDIKVPLLVRGPGIKPNQTSKMLVANIDLGPTILDIAGYDLNKTQMDGMSLLPILRGASNLTWRSDVLVEYQGEGRNVTDPTCPSLSPGVSQCFPDCVCEDAYNNTYACVRTMSALWNLQYCEFDDQEVFVEVYNLTADPDQITNIAKTIDPELLGKMNYRLMMLQSCSGPTCRTPGVFDPGYRFDPRLMFSNRGSVRTRRFSKHLL",Median percent CHG at W24 in improver,hepatic ballooning improvers,−6.64%
same,Median percent CHG at W24 in Non-improver,[1],3.03%
"GITR (protein, UniProt Q9Y5U5 26-241, looked up) Tumor necrosis factor …: QRPTGGPGCGPGRLLLGTGTDARCCRVHTTRCCRDYPGEECCSEWDCMCVQPEFHCGDPCCTTCRHHPCPPGQGVQSQGKFSFGFQCIDCASGTFSGGHEGHCKPWTDCTQFGFLTVFPGNKTHNAVCVPGSPPAEPLGWLTVVLLAVAACVLLLTSAQLGLHIWQLRSQCMWPRETQLLLEVPPSTEDARSCQFPEEERGERSAEEKGRLGDLWV",Median percent CHG at W24 in improver,CRN fibrosis stage improvers,−7.67%
same,Median percent CHG at W24 in Non-improver,[2],−1.84%
"Cathepsin H (protein, UniProt P09668 116-335, looked up) Cathepsin H: YPPSVDWRKKGNFVSPVKNQGACGSCWTFSTTGALESAIAIATGKMLSLAEQQLVDCAQDFNNHGCQGGLPSQAFEYILYNKGIMGEDTYPYQGKDGYCKFQPGKAIGFVKDVANITIYDEEAMVEAVALYNPVSFAFEVTQDFMMYRTGIYSSTSCHKTPDKVNHAVLAVGYGEKNGIPYWIVKNSWGPQWGMNGYFLIERGKNMCGLAACASYPIPLV",Median percent CHG at W24 in improver,CRN fibrosis stage improvers,−13.86%
same,Median percent CHG at W24 in Non-improver,[2],−3.02%
"DcR3 (protein, UniProt O95407 30-300, looked up) Tumor necrosis factor …: VAETPTYPWRDAETGERLVCAQCPPGTFVQRPCRRDSPTTCGPCPPRHYTQFWNYLERCRYCNVLCGEREEEARACHATHNRACRCRTGFFAHAGFCLEHASCPPGAGVIAPGTPSQNTQCQPCPPGTFSASSSSSEQCQPHRNCTALGLALNVPGSSSHDTLCTSCTGFPLSTRVPGAEECERAVIDFVAFQDISIKRLQRLLQALEAPEGWGPTPRAGRAALQLKLRRRLTELLGAQDGALLVRLLQALRVARMPGLERSVRERFLPVH",Median percent CHG at W24 in improver,CRN fibrosis stage improvers,1.1%
same,Median percent CHG at W24 in Non-improver,[2],−2.01%
"PDXK (protein, UniProt O00764 1-312, looked up) Pyridoxal kinase: MEEECRVLSIQSHVIRGYVGNRAATFPLQVLGFEIDAVNSVQFSNHTGYAHWKGQVLNSDELQELYEGLRLNNMNKYDYVLTGYTRDKSFLAMVVDIVQELKQQNPRLVYVCDPVLGDKWDGEGSMYVPEDLLPVYKEKVVPLADIITPNQFEAELLSGRKIHSQEEALRVMDMLHSMGPDTVVITSSDLPSPQGSNYLIVLGSQRRRNPAGSVVMERIRMDIRKVDAVFVGTGDLFAAMLLAWTHKHPNNLKVACEKTVSTLHHVLQRTIQCAKAQAGEGVRPSPMQLELRMVQSKRDIEDPEIVVQATVL",Median percent CHG at W24 in improver,CRN fibrosis stage improvers,−13.7%
same,Median percent CHG at W24 in Non-improver,[2],−2.82%
"Cystatin-S (protein, UniProt P01036 21-141, looked up) Cystatin-S: SSSKEENRIIPGGIYDADLNDEWVQRALHFAISEYNKATEDEYYRRPLQVLRAREQTFGGVNYFFDVEVGRTICTKSQPNLDTCAFHEQPELQKKQLCSFEIYEVPWEDRMSLVNSRCQEA",Median percent CHG at W24 in improver,CRN fibrosis stage improvers,3.35%
same,Median percent CHG at W24 in Non-improver,[2],−1.78%

# From patent publication US20200340060A1, “COMPOSITIONS AND METHODS FOR IDENTIFYING AND TREATING LIVER DISEASES AND MONITORING TREATMENT OUTCOMES” (Gilead Sciences, Inc., priority 2017, published 2020)
